These are yes or no findings as the source states them, for the method shown. In cells and extracts the contact can be indirect. Some binding calls cover weakened binding; strength is not graded here.
Target: HPV-18 E7 oncoprotein, wild type (human papillomavirus type 18 (endogenous in C4-1)) (UniProt P06788)
Assay: co-IP; lysates of wild type and CKII mutant C4-1 cells (50mM HEPES pH7.4, 150mM NaCl, 1mM MgCl2, 1mM NaF, 1% Triton-x-100); anti-HPV-18 E7 antibody overnight at 4°C, protein A beads 90 minutes at 4°C, four washes in lysis buffer; Western blot for pRB; anti-GFP IgG as control

Protein sequences, listed by entry. Tags and fused reporters are not part of them.
UniProt P06788: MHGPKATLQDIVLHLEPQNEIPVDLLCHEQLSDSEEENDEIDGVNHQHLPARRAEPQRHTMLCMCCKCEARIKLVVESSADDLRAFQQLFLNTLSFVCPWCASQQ

B1: pRb (protein, UniProt P06400 1-928)
chain: MPPKTPRKTAATAAAAAAEPPAPPPPPPPEEDPEQDSGPEDLPLVRLEFEETEEPDFTALCQKLKIPDHVRERAWLTWEKVSSVDGVLGGYIQKKKELWGICIFIAAVDLDEMSFTFTELQKNIEISVHKFFNLLKEIDTSTKVDNAMSRLLKKYDVLFALFSKLERTCELIYLTQPSSSISTEINSALVLKVSWITFLLAKGEVLQMEDDLVISFQLMLCVLDYFIKLSPPMLLKEPYKTAVIPINGSPRTPRRGQNRSARIAKQLENDTRIIEVLCKEHECNIDEVKNVYFKNFIPFMNSLGLVTSNGLPEVENLSKRYEEIYLKNKDLDARLFLDHDKTLQTDSIDSFETQRTPRKSNLDEEVNVIPPHTPVRTVMNTIQQLMMILNSASDQPSENLISYFNNCTVNPKESILKRVKDIGYIFKEKFAKAVGQGCVEIGSQRYKLGVRLYYRVMESMLKSEEERLSIQNFSKLLNDNIFHMSLLACALEVVMATYSRSTSQNLDSGTDLSFPWILNVLNLKAFDFYKVIESFIKAEGNLTREMIKHLERCEHRIMESLAWLSDSPLFDLIKQSKDREGPTDHLESACPLNLPLQNNHTAADMYLSPVRSPKKKGSTTRVNSTANAETQATSAFQTQKPLKSTSLSLFYKKVYRLAYLRLNTLCERLLSEHPELEHIIWTLFQHTLQNEYELMRDRHLDQIMMCSMYGICKVKNIDLKFKIIVTAYKDLPHAVQETFKRVLIKEEEYDSIIVFYNSVFMQRLKTNILQYASTRPPTLSPIPHIPRSPYKFPSSPLRIPGGNIYISPLKSPYKISEGLPTPTKMTPRSRILVSIGESFGTSEKFQKINQMVCNSDRVLKRSAEGSNPPKPLKKLRFDIEGSDEADGSKHLPGESKFQQKLAEMTSTRTRMQKQKMNDSMDTSNKEEK
For B1, the binding was “binds”.

From paper PMC6530875
